The supplement of paper PMC7661543
± gives the standard deviation of the averaged measurements. Differences between knockout arms are mostly noise.

Tested on: ZR-75-1
Assay: relative cell number vs DMSO control (72 h) (% of DMSO); higher = less growth inhibition (more cells)
Method: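 QMAP-Seq: a pool of 5 breast cancer cell lines (ZR-75-1, SKBR3, HCC-38, MDA-MB-231, BT-20), each carrying 12 doxycycline-inducible Cas9 sgRNA perturbations (11 knockouts plus non-targeting sgNT), was treated with compounds for 72 h at four 10-fold doses (10 nM-10 uM or 1 nM-1 uM range). Barcodes were amplified and sequenced, and cell number was interpolated from 293T spike-in standard curves. The result is expressed as % of the median of DMSO wells. Two biological replicates.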

[1] = sgRNA knockout: sgATF3, 1000 nM
[2] = sgRNA knockout: sgATF3, 10000 nM
[3] = sgRNA knockout: sgATF4, 1000 nM
[4] = sgRNA knockout: sgATF4, 10000 nM
[5] = sgRNA knockout: sgATF6, 1000 nM
[6] = sgRNA knockout: sgATF6, 10000 nM
[7] = sgRNA knockout: sgATG7, 1000 nM
[8] = sgRNA knockout: sgATG7, 10000 nM
[9] = sgRNA knockout: sgERN1, 1000 nM
[10] = sgRNA knockout: sgERN1, 10000 nM
[11] = sgRNA knockout: sgHSF2, 1000 nM
[12] = sgRNA knockout: sgHSF2, 10000 nM
[13] = sgRNA knockout: sgNFE2L2, 10 nM
[14] = sgRNA knockout: sgNFE2L2, 100 nM
[15] = sgRNA knockout: sgNFE2L2, 1000 nM
[16] = sgRNA knockout: sgNFE2L2, 10000 nM
[17] = sgRNA knockout: sgSLC35F2, 10 nM
[18] = sgRNA knockout: sgSLC35F2, 100 nM
[19] = sgRNA knockout: sgSLC35F2, 1000 nM
[20] = sgRNA knockout: sgSLC35F2, 10000 nM
[21] = sgRNA knockout: sgXBP1, 1000 nM
[22] = sgRNA knockout: sgXBP1, 10000 nM

Structure (SMILES)	relative cell number (sgRNA knockout: sgATF3, 10 nM)	relative cell number (sgRNA knockout: sgATF3, 100 nM)	relative cell number [1]	relative cell number [2]	relative cell number (sgRNA knockout: sgATF4, 10 nM)	relative cell number (sgRNA knockout: sgATF4, 100 nM)	relative cell number [3]	relative cell number [4]	relative cell number (sgRNA knockout: sgATF6, 10 nM)	relative cell number (sgRNA knockout: sgATF6, 100 nM)	relative cell number [5]	relative cell number [6]	relative cell number (sgRNA knockout: sgATG7, 10 nM)	relative cell number (sgRNA knockout: sgATG7, 100 nM)	relative cell number [7]	relative cell number [8]	relative cell number (sgRNA knockout: sgERN1, 10 nM)	relative cell number (sgRNA knockout: sgERN1, 100 nM)	relative cell number [9]	relative cell number [10]	relative cell number (sgRNA knockout: sgHSF2, 10 nM)	relative cell number (sgRNA knockout: sgHSF2, 100 nM)	relative cell number [11]	relative cell number [12]	relative cell number [13]	relative cell number [14]	relative cell number [15]	relative cell number [16]	relative cell number [17]	relative cell number [18]	relative cell number [19]	relative cell number [20]	relative cell number (sgRNA knockout: sgXBP1, 10 nM)	relative cell number (sgRNA knockout: sgXBP1, 100 nM)	relative cell number [21]	relative cell number [22]
CC[C@]1(O)C[C@H]2CN(CCc3c([nH]c4ccccc34)[C@@](C(=O)OC)(c3cc4c(cc3OC)N(C=O)[C@H]3[C@@](O)(C(=O)OC)[C@H](OC(C)=O)[C@]5(CC)C=CCN6CC[C@]43[C@@H]65)C2)C1 [Vincristine]	39.1 ± 5.8	18.1 ± 4	18.9 ± 1.9	16.3 ± 3.1	48.4 ± 11	33.2 ± 6.5	15.2 ± 0.95	13.6 ± 0.29	30.9 ± 6.5	20 ± 3	6.37 ± 3.1	9.55 ± 3	30.7 ± 2.2	21.2 ± 2.7	13.2 ± 6	9.16 ± 6.9	42.4 ± 7.9	20.2 ± 3.6	16.7 ± 1.5	16.6 ± 8.2	28.2 ± 2.6	22.1 ± 5.9	15.5 ± 0.8	10.5 ± 3.6	30.9 ± 12	15.4 ± 1.1	12.7 ± 1.4	10.8 ± 2.3	48.6 ± 26	19.8 ± 1.6	13.5 ± 7.3	19 ± 2.1	37.2 ± 5.8	20.2 ± 5	10.9 ± 1.1	7.63 ± 2
COc1cc([C@@H]2c3cc4c(cc3[C@@H](O[C@@H]3O[C@@H]5CO[C@@H](C)O[C@H]5[C@H](O)[C@H]3O)[C@H]3COC(=O)[C@H]23)OCO4)cc(OC)c1O [Etoposide]	62.8 ± 25	74.4 ± 27	65.6 ± 18	45.9 ± 18	61.4 ± 8.2	77 ± 7.9	62.8 ± 4.2	40 ± 10	82.1 ± 3.1	64.6 ± 10	44.4 ± 30	25.6 ± 12	74.9 ± 27	66.4 ± 12	41 ± 13	39 ± 14	57 ± 1.7	69.7 ± 15	60.1 ± 7.5	37.5 ± 2.2	85 ± 35	67.5 ± 9.1	59 ± 1.9	36.9 ± 2.1	70.2 ± 12	62.9 ± 0.72	40.3 ± 4	25.3 ± 7.2	45.3 ± 21	71.8 ± 52	31.2 ± 26	33 ± 9.8	56.6 ± 3	65.7 ± 1.3	50.2 ± 0.55	34.1 ± 1.2
CC(=O)Nc1nc(C)c(S(=O)(=O)Nc2ccc(C(O)(C(F)(F)F)C(F)(F)F)cc2)s1 [SR1001]	107 ± 15	97.4 ± 3.9	104 ± 16	112 ± 19	115 ± 38	114.3 ± 0.56	127 ± 24	114 ± 14	132 ± 37	89.5 ± 21	112 ± 35	104 ± 12	80.1 ± 27	98.9 ± 50	120 ± 3.3	105 ± 16	123 ± 12	103 ± 6.6	103 ± 16	131 ± 17	99.5 ± 1.4	86.66 ± 0.83	113 ± 4.4	117 ± 11	116 ± 22	111 ± 29	95.1 ± 17	124 ± 2.8	91.2 ± 2.3	92.5 ± 52	109 ± 25	110 ± 3	114 ± 7.7	95.4 ± 9.4	104 ± 4.3	94.6 ± 5.3
CS(=O)(=O)N1CCN(Cc2cc3nc(-c4cccc5[nH]ncc45)nc(N4CCOCC4)c3s2)CC1 [GDC0941]	108 ± 17	100 ± 49	48.9 ± 5	37.2 ± 4.9	118 ± 9.8	77.7 ± 1.2	49.9 ± 1.4	43.8 ± 22	81.6 ± 14	74.6 ± 30	49.6 ± 21	29.7 ± 3.9	76.6 ± 8.8	69.9 ± 3	48 ± 16	29.1 ± 9.6	104 ± 40	89.1 ± 29	58.5 ± 1.2	22 ± 4.1	80.7 ± 18	103 ± 29	53.7 ± 17	32.2 ± 4.8	97.9 ± 17	85.4 ± 26	59.2 ± 6.8	19.7 ± 11	87.2 ± 59	89.4 ± 1.3	68.2 ± 20	27.3 ± 4.2	87.6 ± 16	101 ± 14	50.7 ± 4.2	25.8 ± 4.3
OCc1ccc(-c2ccc(-c3ccc(CO)s3)o2)s1	54.2 ± 11	8.15 ± 1	13.1 ± 1.5	7.69 ± 5.4	70.3 ± 26	12.7 ± 7.5	15 ± 8.7	5.92 ± 2	48.2 ± 10	9.39 ± 4.3	14.4 ± 1.1	5.83 ± 5.3	52.9 ± 8.8	7.62 ± 1.3	11.1 ± 3.7	4.31 ± 1.9	45.6 ± 5.2	8.56 ± 6.4	14.1 ± 7.8	6.58 ± 1.8	40.2 ± 12	9.17 ± 3.7	10.8 ± 5.2	4.49 ± 2.4	45 ± 5.8	9.67 ± 1.1	13.8 ± 5.9	5.04 ± 1.9	68.6 ± 11	7.37 ± 4.4	14.2 ± 7.2	6.65 ± 5.8	35.6 ± 1.1	9.33 ± 2.6	11.7 ± 3.5	5.55 ± 3.2
CC/C(=C(\c1ccc(O)cc1)c1ccc(OCCN(C)C)cc1)c1ccccc1 [4-Hydroxytamoxifen]	74.9 ± 17	69.3 ± 25	46.1 ± 20	41.4 ± 9.3	68.5 ± 2.3	98.1 ± 17	64.9 ± 1.4	37.3 ± 7	65.6 ± 1.3	84.1 ± 28	75.1 ± 1.5	57.7 ± 2.2	70.8 ± 16	87 ± 40	75.2 ± 11	34.6 ± 8.6	84.9 ± 6.9	91.7 ± 9.3	64.3 ± 20	35.8 ± 14	70 ± 3.4	72.2 ± 7.1	63.2 ± 23	40.5 ± 7.6	92.7 ± 11	71.1 ± 7.1	82.6 ± 12	38.7 ± 5.4	80 ± 13	74.6 ± 30	76.2 ± 45	43 ± 20	79.5 ± 4.6	70.4 ± 4.1	93.6 ± 3.1	37.4 ± 3.5
